This is an account of results in PMC10083355.

By UniProt entry, the sequences of proteins in these tests, tags left out. Where a name states a change or a piece, a line headed by the entry shows the natural chain unless it says otherwise.
UniProt Q884Y2: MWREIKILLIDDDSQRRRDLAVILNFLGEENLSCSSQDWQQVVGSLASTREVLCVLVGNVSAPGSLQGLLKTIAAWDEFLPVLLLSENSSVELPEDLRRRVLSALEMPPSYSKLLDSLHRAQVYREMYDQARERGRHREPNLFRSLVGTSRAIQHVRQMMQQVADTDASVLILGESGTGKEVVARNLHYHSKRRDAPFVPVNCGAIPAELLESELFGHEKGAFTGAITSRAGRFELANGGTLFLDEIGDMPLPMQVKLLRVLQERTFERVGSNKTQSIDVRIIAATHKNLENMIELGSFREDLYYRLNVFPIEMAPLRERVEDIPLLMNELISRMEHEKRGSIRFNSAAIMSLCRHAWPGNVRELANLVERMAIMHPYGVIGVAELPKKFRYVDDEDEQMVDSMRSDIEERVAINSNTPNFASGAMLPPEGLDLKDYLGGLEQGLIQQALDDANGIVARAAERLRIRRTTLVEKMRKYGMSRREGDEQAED
UniProt Q884V8: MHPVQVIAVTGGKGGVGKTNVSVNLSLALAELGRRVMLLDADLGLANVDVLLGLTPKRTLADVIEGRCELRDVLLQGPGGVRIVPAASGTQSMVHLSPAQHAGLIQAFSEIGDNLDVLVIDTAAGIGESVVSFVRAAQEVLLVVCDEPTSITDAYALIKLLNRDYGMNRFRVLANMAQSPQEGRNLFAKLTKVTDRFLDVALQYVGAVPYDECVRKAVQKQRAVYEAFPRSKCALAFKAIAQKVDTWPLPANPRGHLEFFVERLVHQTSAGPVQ

The target in this experiment is FleQ from Pseudomonas syringae pv. tomato DC3000 (Pseudomonas syringae pv. tomato DC3000) (UniProt Q884Y2). Put plainly: native gel or EMSA; supershift of the FleQ-DNA band on a 32P-labelled wssA1-2 promoter fragment; 1 uM FleQ and 1 uM FleN (equimolar), with or without 0.5 mM ATP and 0.5 mM c-di-GMP; STAD buffer (25 mM Tris-acetate pH 8.0, 8 mM Mg-acetate, 10 mM KCl, 3.5% PEG-8000, 1 mM DTT) with poly(dI-dC) and BSA; 30 min at 4°C; 4% native polyacrylamide gel in Tris-glycine; both purified.

These are yes or no findings as the source states them, for the method shown. A result given as binding can be weak or reduced; the word gives no strength.

In the case of “His6-FleN from Pseudomonas syringae pv. tomato DC3000 (from UniProt Q884V8)”, the binding entry was “binds”.
